# Reference: the supplement of paper PMC10849652
# By UniProt entry, the sequences of proteins in these tests, tags left out. Where a name states a change or a piece, a line headed by the entry shows the natural chain unless it says otherwise.
# UniProt Q9NP31, whole entry, looked up: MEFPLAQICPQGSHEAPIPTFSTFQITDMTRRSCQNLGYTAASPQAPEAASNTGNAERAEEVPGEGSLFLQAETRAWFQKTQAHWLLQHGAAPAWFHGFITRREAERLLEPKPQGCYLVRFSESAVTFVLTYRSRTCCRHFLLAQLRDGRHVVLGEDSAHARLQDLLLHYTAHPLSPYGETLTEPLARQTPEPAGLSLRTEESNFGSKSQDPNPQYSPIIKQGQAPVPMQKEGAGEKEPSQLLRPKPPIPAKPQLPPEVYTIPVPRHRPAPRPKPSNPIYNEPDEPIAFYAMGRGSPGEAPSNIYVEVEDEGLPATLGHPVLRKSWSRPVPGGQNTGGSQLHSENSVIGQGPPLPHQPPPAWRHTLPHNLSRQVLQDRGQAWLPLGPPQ
# UniProt Q9BWJ5: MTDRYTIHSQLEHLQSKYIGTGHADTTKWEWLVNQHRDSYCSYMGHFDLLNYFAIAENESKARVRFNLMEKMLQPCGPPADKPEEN
# UniProt Q96BD8: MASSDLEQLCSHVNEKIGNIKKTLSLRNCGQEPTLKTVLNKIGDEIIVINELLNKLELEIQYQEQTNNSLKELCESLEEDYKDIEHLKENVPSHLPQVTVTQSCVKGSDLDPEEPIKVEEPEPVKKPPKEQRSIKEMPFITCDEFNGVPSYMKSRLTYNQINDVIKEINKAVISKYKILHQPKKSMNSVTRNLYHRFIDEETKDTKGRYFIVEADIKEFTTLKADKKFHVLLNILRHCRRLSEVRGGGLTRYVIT
# UniProt Q2M3G4: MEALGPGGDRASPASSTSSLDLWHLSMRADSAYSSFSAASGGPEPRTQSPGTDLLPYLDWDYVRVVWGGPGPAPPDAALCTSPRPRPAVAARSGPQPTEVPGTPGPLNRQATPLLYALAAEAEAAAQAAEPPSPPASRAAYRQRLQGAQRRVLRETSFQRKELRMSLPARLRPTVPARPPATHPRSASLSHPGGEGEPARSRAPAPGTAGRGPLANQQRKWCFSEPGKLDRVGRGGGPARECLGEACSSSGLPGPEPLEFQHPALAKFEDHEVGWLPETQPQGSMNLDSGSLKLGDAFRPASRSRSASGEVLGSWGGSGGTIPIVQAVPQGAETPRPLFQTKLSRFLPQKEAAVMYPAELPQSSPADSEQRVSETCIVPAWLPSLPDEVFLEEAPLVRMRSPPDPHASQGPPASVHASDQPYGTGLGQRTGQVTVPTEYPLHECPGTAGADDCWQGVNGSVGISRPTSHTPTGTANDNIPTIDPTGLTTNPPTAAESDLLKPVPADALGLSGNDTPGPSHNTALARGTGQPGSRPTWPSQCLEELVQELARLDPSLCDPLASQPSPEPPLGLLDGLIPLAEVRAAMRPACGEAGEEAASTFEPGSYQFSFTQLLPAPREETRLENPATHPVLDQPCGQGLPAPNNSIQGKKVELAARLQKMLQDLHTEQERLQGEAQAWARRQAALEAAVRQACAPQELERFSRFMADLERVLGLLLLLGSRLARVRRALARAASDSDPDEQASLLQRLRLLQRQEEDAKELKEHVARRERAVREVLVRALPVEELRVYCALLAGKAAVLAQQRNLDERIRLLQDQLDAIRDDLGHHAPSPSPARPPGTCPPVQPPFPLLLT
# UniProt P04279: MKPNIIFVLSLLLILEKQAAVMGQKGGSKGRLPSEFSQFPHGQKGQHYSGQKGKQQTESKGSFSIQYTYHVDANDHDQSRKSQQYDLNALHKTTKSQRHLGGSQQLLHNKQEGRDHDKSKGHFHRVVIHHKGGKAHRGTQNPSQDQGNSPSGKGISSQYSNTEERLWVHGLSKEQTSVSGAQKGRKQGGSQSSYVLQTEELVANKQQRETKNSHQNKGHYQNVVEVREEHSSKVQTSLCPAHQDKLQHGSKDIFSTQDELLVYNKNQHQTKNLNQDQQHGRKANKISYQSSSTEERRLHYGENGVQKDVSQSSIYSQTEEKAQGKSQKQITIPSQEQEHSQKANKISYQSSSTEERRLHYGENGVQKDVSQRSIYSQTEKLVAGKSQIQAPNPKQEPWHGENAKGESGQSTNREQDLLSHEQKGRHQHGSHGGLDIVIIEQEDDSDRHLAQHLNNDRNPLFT
# UniProt Q8N196: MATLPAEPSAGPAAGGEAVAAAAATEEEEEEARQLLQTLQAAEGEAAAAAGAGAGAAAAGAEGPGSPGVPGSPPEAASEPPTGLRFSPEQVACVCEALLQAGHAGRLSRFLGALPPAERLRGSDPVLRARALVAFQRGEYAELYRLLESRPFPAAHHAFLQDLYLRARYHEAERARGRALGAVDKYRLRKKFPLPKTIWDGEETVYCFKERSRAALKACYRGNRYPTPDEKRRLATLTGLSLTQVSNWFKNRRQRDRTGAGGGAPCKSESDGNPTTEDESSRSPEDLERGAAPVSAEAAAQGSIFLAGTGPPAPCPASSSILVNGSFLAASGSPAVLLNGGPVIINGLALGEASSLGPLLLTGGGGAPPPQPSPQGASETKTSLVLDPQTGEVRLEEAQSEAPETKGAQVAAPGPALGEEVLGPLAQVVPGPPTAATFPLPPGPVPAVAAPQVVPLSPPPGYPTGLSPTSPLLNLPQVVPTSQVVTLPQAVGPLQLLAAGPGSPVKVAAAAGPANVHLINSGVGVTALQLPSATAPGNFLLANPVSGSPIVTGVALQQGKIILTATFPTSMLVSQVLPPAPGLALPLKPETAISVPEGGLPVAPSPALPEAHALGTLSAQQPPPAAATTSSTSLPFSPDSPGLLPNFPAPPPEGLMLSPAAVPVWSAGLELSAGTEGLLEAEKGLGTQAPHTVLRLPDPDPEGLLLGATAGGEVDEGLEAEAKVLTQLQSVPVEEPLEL
# UniProt Q9BYW2: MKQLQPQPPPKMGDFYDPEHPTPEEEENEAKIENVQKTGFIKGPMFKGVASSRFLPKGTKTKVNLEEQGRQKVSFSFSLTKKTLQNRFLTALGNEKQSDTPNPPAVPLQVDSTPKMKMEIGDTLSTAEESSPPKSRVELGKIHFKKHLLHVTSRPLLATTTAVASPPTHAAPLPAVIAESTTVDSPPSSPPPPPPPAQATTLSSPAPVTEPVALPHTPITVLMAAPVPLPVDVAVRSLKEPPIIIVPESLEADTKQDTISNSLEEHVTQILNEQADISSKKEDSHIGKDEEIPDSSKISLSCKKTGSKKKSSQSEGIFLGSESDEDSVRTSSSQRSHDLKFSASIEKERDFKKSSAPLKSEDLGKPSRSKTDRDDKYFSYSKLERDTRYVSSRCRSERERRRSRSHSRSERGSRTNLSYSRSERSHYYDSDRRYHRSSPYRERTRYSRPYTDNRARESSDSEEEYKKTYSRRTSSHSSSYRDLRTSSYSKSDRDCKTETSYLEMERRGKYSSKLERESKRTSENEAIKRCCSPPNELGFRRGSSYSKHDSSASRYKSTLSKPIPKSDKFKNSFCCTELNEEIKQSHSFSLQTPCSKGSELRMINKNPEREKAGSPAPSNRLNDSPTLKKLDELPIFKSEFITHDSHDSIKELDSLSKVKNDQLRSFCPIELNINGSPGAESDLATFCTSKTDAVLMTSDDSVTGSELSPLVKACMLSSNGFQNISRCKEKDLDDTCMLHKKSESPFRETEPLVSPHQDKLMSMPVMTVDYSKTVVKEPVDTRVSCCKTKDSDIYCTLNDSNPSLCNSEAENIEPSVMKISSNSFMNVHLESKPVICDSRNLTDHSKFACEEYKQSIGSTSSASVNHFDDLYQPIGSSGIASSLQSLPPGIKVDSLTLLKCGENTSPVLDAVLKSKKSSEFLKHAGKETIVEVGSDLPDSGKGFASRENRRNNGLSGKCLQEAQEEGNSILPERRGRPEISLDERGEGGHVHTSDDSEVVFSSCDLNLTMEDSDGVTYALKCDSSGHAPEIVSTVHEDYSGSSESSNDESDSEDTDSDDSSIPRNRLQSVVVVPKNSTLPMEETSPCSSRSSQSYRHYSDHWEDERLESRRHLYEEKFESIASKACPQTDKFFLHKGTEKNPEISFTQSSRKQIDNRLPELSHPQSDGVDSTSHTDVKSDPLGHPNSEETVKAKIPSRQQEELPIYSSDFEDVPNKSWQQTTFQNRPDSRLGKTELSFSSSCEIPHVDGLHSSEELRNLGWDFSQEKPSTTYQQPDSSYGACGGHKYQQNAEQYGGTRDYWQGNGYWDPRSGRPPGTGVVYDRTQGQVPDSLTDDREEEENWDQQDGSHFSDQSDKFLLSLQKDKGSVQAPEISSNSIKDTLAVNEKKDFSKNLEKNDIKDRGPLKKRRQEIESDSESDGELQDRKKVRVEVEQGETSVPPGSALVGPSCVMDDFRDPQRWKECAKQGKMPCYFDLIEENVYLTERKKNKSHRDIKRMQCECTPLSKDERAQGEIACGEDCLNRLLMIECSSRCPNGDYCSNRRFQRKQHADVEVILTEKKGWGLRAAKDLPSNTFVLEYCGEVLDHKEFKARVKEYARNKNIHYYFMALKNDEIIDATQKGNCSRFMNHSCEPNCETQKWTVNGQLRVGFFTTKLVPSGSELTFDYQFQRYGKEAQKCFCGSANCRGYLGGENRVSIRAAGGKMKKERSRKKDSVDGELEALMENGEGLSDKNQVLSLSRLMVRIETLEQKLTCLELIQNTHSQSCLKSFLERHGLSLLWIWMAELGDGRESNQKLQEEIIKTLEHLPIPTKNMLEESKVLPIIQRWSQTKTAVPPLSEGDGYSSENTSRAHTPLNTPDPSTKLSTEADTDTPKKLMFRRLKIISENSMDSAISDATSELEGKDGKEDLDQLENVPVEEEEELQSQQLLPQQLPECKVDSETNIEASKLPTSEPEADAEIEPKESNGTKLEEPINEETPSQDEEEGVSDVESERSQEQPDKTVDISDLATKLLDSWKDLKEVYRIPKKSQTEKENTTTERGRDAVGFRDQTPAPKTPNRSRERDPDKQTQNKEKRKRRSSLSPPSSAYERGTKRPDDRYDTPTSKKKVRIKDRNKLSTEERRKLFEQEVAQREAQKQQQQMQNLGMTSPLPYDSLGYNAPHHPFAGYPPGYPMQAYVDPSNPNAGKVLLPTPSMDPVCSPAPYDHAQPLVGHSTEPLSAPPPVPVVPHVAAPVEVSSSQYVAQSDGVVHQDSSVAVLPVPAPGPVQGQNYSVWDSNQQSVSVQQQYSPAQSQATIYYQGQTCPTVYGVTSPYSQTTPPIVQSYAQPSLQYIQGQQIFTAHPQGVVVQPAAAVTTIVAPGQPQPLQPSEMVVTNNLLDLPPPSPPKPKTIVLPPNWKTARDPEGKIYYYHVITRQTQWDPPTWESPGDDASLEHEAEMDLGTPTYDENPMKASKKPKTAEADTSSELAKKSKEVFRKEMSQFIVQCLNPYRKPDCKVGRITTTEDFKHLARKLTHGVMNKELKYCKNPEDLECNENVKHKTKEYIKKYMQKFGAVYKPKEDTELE
# UniProt P55822: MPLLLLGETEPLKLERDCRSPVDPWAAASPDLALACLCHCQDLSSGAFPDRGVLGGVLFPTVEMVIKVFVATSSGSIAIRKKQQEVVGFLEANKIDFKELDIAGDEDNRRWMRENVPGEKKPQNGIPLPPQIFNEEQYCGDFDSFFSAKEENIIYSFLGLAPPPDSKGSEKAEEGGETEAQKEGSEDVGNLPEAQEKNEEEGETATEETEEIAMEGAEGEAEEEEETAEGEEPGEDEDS
# UniProt Q9NRX5: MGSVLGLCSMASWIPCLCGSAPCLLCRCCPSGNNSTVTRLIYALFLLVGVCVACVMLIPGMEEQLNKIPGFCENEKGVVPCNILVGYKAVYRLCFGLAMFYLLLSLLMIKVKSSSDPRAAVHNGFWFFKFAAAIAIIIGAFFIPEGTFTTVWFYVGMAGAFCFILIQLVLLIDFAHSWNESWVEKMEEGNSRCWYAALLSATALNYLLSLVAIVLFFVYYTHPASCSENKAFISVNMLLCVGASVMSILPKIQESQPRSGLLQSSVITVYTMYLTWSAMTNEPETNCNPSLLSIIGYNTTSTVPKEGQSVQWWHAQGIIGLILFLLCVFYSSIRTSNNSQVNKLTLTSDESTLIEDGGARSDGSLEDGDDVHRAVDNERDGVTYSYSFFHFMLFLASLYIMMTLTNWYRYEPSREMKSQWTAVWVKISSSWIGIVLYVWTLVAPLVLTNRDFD
# UniProt P51688: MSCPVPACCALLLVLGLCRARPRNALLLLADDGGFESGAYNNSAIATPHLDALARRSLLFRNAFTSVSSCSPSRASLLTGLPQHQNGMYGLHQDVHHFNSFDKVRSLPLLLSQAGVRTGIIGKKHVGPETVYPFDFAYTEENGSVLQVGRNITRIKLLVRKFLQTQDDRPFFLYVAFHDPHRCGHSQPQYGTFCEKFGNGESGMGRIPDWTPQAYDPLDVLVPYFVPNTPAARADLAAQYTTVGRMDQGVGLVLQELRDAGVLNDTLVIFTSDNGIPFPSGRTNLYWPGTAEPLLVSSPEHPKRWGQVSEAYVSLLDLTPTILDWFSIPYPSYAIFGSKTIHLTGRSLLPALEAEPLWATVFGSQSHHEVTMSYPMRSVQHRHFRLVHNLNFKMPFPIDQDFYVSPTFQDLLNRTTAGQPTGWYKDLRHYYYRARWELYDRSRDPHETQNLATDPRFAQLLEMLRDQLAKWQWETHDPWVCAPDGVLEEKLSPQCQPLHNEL
# The other results are listed elsewhere or left out.
# Columns and labels:
# Experiment in all cases: log2 fold change, soluble protein after heating vs DMSO (PISA); higher = thermal stabilisation; K562 cells, 10 uM, 30 min; active = over 0.2 and 3.5 SD of the protein, either way, in both replicates (recomputed)
# [1] = compound: CC1=C2C(=CC=C1)N=C(N(C2=O)C3=CC=CC=C3C)CN4C=NC5=C(N=CN=C54)N
# How it was run: (§1)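 For each measurement, 10 μM compound was applied for 30 min to K562 cells at 2×10^6 cells/mL. Aliquots were heated for 3 min across 48°C-58°C, pooled, and extracted in PBS with 0.5% NP-40 at 4°C; the supernatant after 21,000xg for 90 min was soluble protein. This was quantified by TMTpro 16plex LC-MS/MS with channel sums equalised, and thermal stability was reported relative to control samples from duplicates, on a log2 fold-change scale.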
# [2] = compound: Cc1sc2c(c1C)C(c1ccc(Cl)cc1)=N[C@@H](CC(=O)OC(C)(C)C)c1nnc(C)n1-2
# How it was run: as §1
# [3] = compound: CC1=C(SC2=C1C(=N[C@H](C3=NN=C(N32)C)CC(=O)N)C4=CC=C(C=C4)Cl)C
# How it was run: as §1
# [4] = compound: c1ccc([C@@H]2C[C@H]2NC2CCNCC2)cc1
# How it was run: as §1
# [5] = compound: C1=CC=C(C=C1)[C@H](COC2=CC3=C(C=C2)NC(=O)N3)NC(=O)C4=CC=CN(C4=O)CC5=CC(=C(C=C5)F)F
# How it was run: as §1
target,measurement,setting,value
SH3GL3 isoform 3 (UniProt Q99963),log2 fold change,[1],inactive: 0.123
same,log2 fold change,[2],inactive: -0.108
SH2D2A isoform 2 (UniProt Q9NP31),log2 fold change,[3],inactive: 0.136
same,log2 fold change,[4],inactive: -0.05
SHQ1 (UniProt Q6PI26),log2 fold change,[1],inactive: 0.033
SIRT3 (UniProt Q9NTG7),log2 fold change,[1],inactive: 0.039
SECISBP2 (UniProt Q96T21),log2 fold change,[2],inactive: -0.181
SETDB1 (UniProt Q15047),log2 fold change,[3],inactive: 0.235
same,log2 fold change,[1],inactive: 0.187
same,log2 fold change,[2],inactive: -0.02
same,log2 fold change,[4],inactive: -0.175
"SERPINB6, A0A2R8Y7E5",log2 fold change,[5],inactive: -0.269
same,log2 fold change,[1],inactive: 0.138
SERBP1 isoform 3 (UniProt Q8NC51),log2 fold change,[5],inactive: 0.074
same,log2 fold change,[2],inactive: -0.126
SERAC1 (UniProt Q96JX3),log2 fold change,[3],inactive: -0.197
same,log2 fold change,[4],inactive: 0.097
SH2D1B (UniProt O14796),log2 fold change,[3],inactive: 0.205
same,log2 fold change,[1],inactive: -0.047
same,log2 fold change,[2],inactive: 0.003
same,log2 fold change,[4],inactive: 0.033
SF3B5 (UniProt Q9BWJ5),log2 fold change,[5],inactive: 0.056
same,log2 fold change,[1],inactive: -0.032
same,log2 fold change,[2],inactive: 0.007
SKA1 (UniProt Q96BD8),log2 fold change,[3],inactive: -0.222
same,log2 fold change,[1],inactive: -0.132
same,log2 fold change,[4],inactive: -0.091
SH2D3A (UniProt Q9BRG2),log2 fold change,[1],inactive: -0.061
SH2B1 (UniProt Q9NRF2),log2 fold change,[1],inactive: -0.262
SHROOM1 (UniProt Q2M3G4),log2 fold change,[5],inactive: -0.2
same,log2 fold change,[3],inactive: -0.036
same,log2 fold change,[4],inactive: 0.068
SEPTIN2 (UniProt B5MCX3),log2 fold change,[1],inactive: 0.386
same,log2 fold change,[2],inactive: 0.19
SIK3 (UniProt H0Y4E8),log2 fold change,[3],inactive: 0.034
same,log2 fold change,[1],inactive: 0.025
same,log2 fold change,[2],inactive: 0.118
same,log2 fold change,[4],inactive: 0.028
SERPIND1 (UniProt P05546),log2 fold change,[3],inactive: -0.112
same,log2 fold change,[4],inactive: 0.053
SERPINB7 (UniProt O75635),log2 fold change,[5],inactive: 0.245
same,log2 fold change,[1],inactive: 0.176
same,log2 fold change,[2],inactive: -0.052
SEMA7A (UniProt O75326),log2 fold change,[1],inactive: -0.047
SESN1 isoform 2 (UniProt Q9Y6P5),log2 fold change,[2],inactive: -0.002
SEMG1 (UniProt P04279),log2 fold change,[3],inactive: 0.115
same,log2 fold change,[4],inactive: -0.081
SHFL (UniProt Q9NUL5),log2 fold change,[5],inactive: -0.006
same,log2 fold change,[2],inactive: -0.506
SEMG2 (UniProt Q02383),log2 fold change,[5],inactive: 0.038
same,log2 fold change,[3],inactive: 0.063
same,log2 fold change,[2],inactive: -0.047
same,log2 fold change,[4],inactive: -0.066
SFXN1 (UniProt D6RDG7),log2 fold change,[2],inactive: 0.12
SIX5 (UniProt Q8N196),log2 fold change,[5],inactive: 0
same,log2 fold change,[3],inactive: 0.004
same,log2 fold change,[4],inactive: -0.053
SERPINB5 (UniProt P36952),log2 fold change,[5],inactive: -0.092
same,log2 fold change,[1],inactive: 0.035
same,log2 fold change,[2],inactive: -0.961
SELENON (UniProt Q9NZV5),log2 fold change,[1],inactive: -0.048
SETD2 (UniProt Q9BYW2),log2 fold change,[2],inactive: 0.014
SH3BGR (UniProt P55822),log2 fold change,[5],inactive: -0.004
same,log2 fold change,[3],inactive: -0.001
same,log2 fold change,[4],inactive: 0.001
SERPINA12 (UniProt Q8IW75),log2 fold change,[1],inactive: -0.323
same,log2 fold change,[2],inactive: -0.258
SERINC1 (UniProt Q9NRX5),log2 fold change,[5],inactive: 0.021
same,log2 fold change,[1],inactive: 0.027
same,log2 fold change,[2],inactive: -0.08
SGSH (UniProt P51688),log2 fold change,[3],inactive: -0.051
same,log2 fold change,[4],inactive: 0.073

# For reference, part of the list above:
target,measurement,setting,value
SH2D1B (UniProt O14796),log2 fold change,[1],inactive: -0.047
same,log2 fold change,[2],inactive: 0.003
same,log2 fold change,[4],inactive: 0.033

# Reformatted: entries from further up.
target | measurement | setting | value
SIK3 (UniProt H0Y4E8) | log2 fold change | [4] | inactive: 0.028
SERPIND1 (UniProt P05546) | log2 fold change | [3] | inactive: -0.112
